Reference: article PMC12961538
Results are given in words; binding and its absence hold for the method and conditions named. In cells and extracts the contact can be indirect. Some entries that bind do so weakly or less than the wild type.

Amino acid sequences for entries named in this document (tags omitted). Residues count along the entry.
UniProt Q62469, residues 27-1178: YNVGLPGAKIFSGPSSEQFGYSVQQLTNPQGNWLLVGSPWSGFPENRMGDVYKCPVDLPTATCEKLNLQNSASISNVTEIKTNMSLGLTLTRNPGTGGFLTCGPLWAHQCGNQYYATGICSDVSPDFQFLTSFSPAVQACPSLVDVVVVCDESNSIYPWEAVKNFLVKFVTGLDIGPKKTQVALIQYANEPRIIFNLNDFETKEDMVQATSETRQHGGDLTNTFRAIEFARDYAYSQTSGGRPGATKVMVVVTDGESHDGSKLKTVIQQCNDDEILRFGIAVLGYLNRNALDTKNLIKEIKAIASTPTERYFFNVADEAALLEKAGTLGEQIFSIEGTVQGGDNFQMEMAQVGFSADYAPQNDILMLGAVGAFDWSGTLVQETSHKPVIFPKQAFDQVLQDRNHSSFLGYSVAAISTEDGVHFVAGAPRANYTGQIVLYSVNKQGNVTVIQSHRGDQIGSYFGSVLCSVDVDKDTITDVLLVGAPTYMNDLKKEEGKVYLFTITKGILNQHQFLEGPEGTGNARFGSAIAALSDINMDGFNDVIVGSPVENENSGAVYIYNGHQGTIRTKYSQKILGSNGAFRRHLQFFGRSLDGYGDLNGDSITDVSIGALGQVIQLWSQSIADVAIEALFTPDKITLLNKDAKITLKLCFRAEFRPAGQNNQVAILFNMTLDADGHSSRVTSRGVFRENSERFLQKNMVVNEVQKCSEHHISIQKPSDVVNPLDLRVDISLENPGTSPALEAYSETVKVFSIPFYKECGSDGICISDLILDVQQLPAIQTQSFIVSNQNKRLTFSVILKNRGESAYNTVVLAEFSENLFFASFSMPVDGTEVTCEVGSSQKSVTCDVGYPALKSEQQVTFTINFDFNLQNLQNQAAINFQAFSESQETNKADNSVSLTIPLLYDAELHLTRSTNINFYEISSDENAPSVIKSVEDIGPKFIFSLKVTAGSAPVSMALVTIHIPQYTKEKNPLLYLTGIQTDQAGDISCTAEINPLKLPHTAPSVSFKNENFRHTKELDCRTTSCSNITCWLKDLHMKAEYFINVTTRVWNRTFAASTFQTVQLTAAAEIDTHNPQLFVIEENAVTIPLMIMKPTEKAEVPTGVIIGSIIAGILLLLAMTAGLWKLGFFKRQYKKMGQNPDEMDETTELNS
UniProt P09055, residues 21-798: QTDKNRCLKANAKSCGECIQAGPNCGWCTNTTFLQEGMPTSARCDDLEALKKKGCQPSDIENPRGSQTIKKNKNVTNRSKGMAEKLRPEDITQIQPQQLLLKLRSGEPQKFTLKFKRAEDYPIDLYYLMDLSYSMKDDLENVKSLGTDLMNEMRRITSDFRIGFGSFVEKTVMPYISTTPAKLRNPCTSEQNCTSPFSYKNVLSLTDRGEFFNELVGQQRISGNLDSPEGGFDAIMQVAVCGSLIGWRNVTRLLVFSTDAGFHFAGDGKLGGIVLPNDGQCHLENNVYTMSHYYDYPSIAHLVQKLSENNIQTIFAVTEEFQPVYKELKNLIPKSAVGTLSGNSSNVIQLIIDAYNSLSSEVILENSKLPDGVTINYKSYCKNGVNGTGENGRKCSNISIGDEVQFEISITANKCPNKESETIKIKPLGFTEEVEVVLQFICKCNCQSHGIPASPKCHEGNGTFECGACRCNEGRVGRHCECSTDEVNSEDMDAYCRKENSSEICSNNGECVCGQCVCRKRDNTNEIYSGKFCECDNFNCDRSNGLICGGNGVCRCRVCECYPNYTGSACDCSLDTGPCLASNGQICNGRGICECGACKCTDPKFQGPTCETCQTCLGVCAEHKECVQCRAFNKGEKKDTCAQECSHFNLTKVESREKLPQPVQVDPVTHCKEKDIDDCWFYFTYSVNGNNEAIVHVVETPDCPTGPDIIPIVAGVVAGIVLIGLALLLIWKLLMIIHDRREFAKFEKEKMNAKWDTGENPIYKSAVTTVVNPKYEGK
UniProt P11835, residues 24-771: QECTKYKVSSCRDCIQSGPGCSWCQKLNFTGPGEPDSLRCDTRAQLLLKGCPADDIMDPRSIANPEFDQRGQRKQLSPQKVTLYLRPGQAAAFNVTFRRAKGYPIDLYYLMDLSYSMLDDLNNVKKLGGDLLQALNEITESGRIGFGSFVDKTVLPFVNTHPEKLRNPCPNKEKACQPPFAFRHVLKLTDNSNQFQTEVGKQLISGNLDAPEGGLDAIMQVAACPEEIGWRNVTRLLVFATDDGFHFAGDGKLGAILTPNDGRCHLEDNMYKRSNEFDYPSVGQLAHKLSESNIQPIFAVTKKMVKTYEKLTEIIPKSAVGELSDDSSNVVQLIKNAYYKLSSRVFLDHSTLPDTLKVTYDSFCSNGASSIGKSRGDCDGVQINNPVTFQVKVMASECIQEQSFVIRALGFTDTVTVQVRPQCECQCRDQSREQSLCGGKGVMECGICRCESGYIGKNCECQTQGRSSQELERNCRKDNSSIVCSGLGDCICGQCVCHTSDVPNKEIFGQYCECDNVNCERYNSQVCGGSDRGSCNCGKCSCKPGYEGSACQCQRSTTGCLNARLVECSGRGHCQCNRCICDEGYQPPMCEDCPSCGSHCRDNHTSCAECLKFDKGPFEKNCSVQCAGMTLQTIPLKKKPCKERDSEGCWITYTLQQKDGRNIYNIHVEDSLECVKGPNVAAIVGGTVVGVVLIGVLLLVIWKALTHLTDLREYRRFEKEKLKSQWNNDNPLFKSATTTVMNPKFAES

Biological target: ITGA2 (mouse (endogenous in BMMs)) (UniProt Q62469)
Assay: co-IP; total protein extracts of BMMs; Protein A/G agarose beads with ITGA2 antibody (or IgG), reverse IP with ITGB1 or ITGB2 antibody; Western blot

In the case of “ITGB1 (from UniProt P09055 21-798) (receptor)”, the binding is reported as “binds”.
For “integrin receptor β2 subunit (ITGB2) (from UniProt P11835 24-771)”, the binding was “binds”.
